We go through 1 substance from PMC8200006.

Experiment [1] addresses T1, Recombinant Human SRI (sorcin), soluble resistance-related calcium-binding protein (human) (UniProt P30626).
T1 sequence: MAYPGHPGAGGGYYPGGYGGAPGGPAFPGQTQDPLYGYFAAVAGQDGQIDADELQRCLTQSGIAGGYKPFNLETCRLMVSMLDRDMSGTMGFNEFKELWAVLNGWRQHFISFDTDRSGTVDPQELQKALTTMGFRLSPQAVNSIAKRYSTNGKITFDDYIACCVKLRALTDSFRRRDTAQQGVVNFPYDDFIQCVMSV
The experiment in a line: intrinsic fluorescence (quenching on mixing); excitation at 280 nm, fluorescence values at 310 nm; spectra of the single proteins and of the premixed pairs, premixed value compared with the sum of the single values; method in the supplement; both purified.

In experiment [2] the target is T1, Recombinant Human SRI (sorcin), soluble resistance-related calcium-binding protein (human). The experiment in a line: far-Western, overlay or dot blot; sorcin (1 µg) run on 10% SDS-PAGE and transferred to PVDF, blocked with 5% low-fat milk in PBS-1% Tween 20, incubated for 3 h at 37 °C with 0.5 µg PMCA in PBS-T, washed, bound PMCA detected with the anti-PMCA antibody 5F10; both purified.

No constants are given. Whether binding was seen depends on the method and setting. Binding can be weak; no strength is given.

With “purified pig brain plasma membrane Ca2+-ATPase (PMCA)”, the binding entry in experiment [1] and in experiment [2] was “binds” throughout.
